Measured values published in PubChem BioAssay AID2685 (National Center for Advancing Translational Sciences (NCATS), 2010).
The other results are listed elsewhere or left out. Shown are side measurements of this screen, not its main read-out; they come without a call. The list favours compounds with an active or inconclusive main result. The note in brackets gives the kind of curve behind each potency; many fits are weak.

Assay: qHTS Assay for Lipid Storage Modulators in Drosophila S3 Cells;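 on cell number change: cells counted by Cell Tracker Red CMTPX staining in the red channel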
Settings: BODIPY lipid droplet fluorescence, 18-24 h; for cell number change: measured here: cell count max response, cells fed with added oleic acid
Procedure, shortened: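 Drosophila S3 cells got compounds at several concentrations plus oleic acid (400 uM solution). Laser-scanning cytometry with 488 nm excitation read lipid droplets at 500-530 nm and cells at 575-640 nm. Percent activity was relative to 20 uM Triacsin C.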

[1] = measured here: lipid fluorescence (Fed channel) AC50, cells fed with added oleic acid
[2] = measured here: cell number channel AC50, cells fed with added oleic acid

| SMILES | AC50 [1] | cell number change | AC50 [2] |
| --- | --- | --- | --- |
| CC(C(=O)NC1CCCCC1)N1C(=O)C2C3C=CC(C3)C2C1=O (centres undefined) | 0.082 µM [falling, full curve, poor fit] |  |  |
| CCOc1ccc(C(=O)NC(C(=O)NCCc2ccc(S(N)(=O)=O)cc2)C(C)C)cc1 (centres undefined) |  | 14.8% |  |
| O=C(CSc1nnc(Cc2cc(=O)[nH]c(=O)[nH]2)n1-c1ccccc1)NCC1CCCO1 (centres undefined) | 29.1 µM [falling, single point] | -12.5% |  |
| C/C(N)=C(/C#N)C(=O)CSc1nnc(COc2ccccc2Cl)o1 | 0.259 µM [rising, full curve, poor fit] | 9.88% |  |
| Cc1occc1C(=O)N1CCC2(CCCN(Cc3ccc(F)c(F)c3)C2)C1 (centres undefined) |  | 38.4% | 23.1 µM [rising, partial curve, poor fit] |
| O=C(Nc1c2c(nn1-c1ccc([N+](=O)[O-])cc1)CS(=O)(=O)C2)C1CC1 | 29.1 µM [rising, single point] | 6.13% |  |
| Cc1ccc(S(=O)(=O)Nc2ccccc2C(=O)N2CCOCC2)cc1 |  | -11.3% |  |
| COc1ccc(NC(=S)N2CCCC2)c(OC)c1 |  | 19.9% |  |
| COc1ccc(N2CCN(C(=S)NC(=O)c3cccs3)CC2)c([N+](=O)[O-])c1 |  | 24.1% | 1.3 µM [rising, full curve, poor fit] |
| CC(OC(=O)CCCc1c[nH]c2ccccc12)C(=O)Nc1ccc(S(N)(=O)=O)cc1 (centres undefined) | 0.00517 µM [rising, full curve, poor fit] | 7.02% |  |
| C=CCN(C#N)c1nc(OC)nc(N2CCCC2)n1 | 1.64 µM [rising, partial curve] | 21.8% |  |
| CCCC(=O)N(Cc1cccnc1)c1nc2c(OC)ccc(Cl)c2s1 |  | 17.7% |  |
| CC(=O)Nc1cc(-c2ccc(F)cc2)[nH]n1 |  | -32.6% | 13 µM [falling, single point] |
| Cn1cccc1/C=N/NC(=O)c1cccc(OC(F)(F)C(F)F)c1 | 5.8 µM [rising, partial curve] | 42.1% | 2.91 µM [rising, partial curve] |
| COc1ccccc1OCCC(=O)OCC(=O)Nc1ncc(Cl)cc1Cl | 29.1 µM [rising, single point] | -0.845% |  |
| C/C(=N\Nc1ccc(S(N)(=O)=O)cc1[N+](=O)[O-])c1cccnc1 | 0.1 µM [falling, full curve, poor fit] | 26.3% |  |
| COc1ccc(-c2cc(C(=O)Nc3ccc(Br)cc3)no2)cc1 | 0.58 µM [rising, single point] | -2.78% |  |
| O=C(COc1ccc(Br)cc1)Nc1ccccc1C(=O)NC1CC1 |  |  | 2.59 µM [rising, partial curve] |
| O=C(CCNS(=O)(=O)c1ccc(Cl)cc1)Nc1ccncc1 |  | 1.26% |  |
| COCc1nnc(NC(=O)c2ccc3c(c2)OCO3)s1 |  | 47.7% | 29.1 µM [rising, single point] |
| C=Cc1ccc(C(=O)N2CCCC(Nc3ccc4c(c3)OCCO4)C2)cc1 (centres undefined) |  | 4.42% |  |

| SMILES | AC50 [1] | cell number change | AC50 [2] |
| --- | --- | --- | --- |
| O=C(C1CCC1)N1CCN(c2ccc(C(F)(F)F)cc2[N+](=O)[O-])CC1 | 0.651 µM [falling, full curve, poor fit] |  |  |
| Cc1ccc(CN2C(=O)CCC2C(=O)NC2CCCC2)cc1 (centres undefined) | 23.1 µM [falling, partial curve] | -10.8% | 2.31 µM [falling, partial curve, poor fit] |
| CCc1cc(C(=O)N=Nc2c(O)[nH]c3c(Br)cc(Br)cc23)c2ccccc2n1 | 0.259 µM [rising, full curve, poor fit] | 21.5% | 0.82 µM [rising, full curve, poor fit] |
| COc1ccccc1CNC(=O)COC(=O)c1ccc(C)c(S(=O)(=O)N2CCCCC2)c1 | 16.4 µM [falling, single point] | 1.66% |  |
| O=C(NC1CCCC1)C(c1ccccc1)N(C(=O)c1csnn1)C1CCCC1 (centres undefined) |  | -11.5% |  |
| COc1cccc(CC(=O)Nc2ccc(S(=O)(=O)N3CCOCC3)cc2)c1 | 0.291 µM [falling, partial curve, poor fit] |  |  |
| COCCN(C(=O)COC(=O)Cc1c[nH]c2ccccc12)c1c(N)n(Cc2ccccc2)c(=O)[nH]c1=O |  | 10.1% |  |
| CC(C)[C@]1(c2ccccc2)ON(c2ccccc2C(F)(F)F)C1=O | 0.731 µM [rising, full curve] | -77.2% | 7.31 µM [falling, single point] |
| CC(C)C(=O)Nc1ccc(N2CCN(S(C)(=O)=O)CC2)cc1 |  | -72.5% | 32.6 µM [falling, single point] |
| Cc1csc(NC(=O)CSc2nnc(-c3ccoc3C)n2Cc2ccco2)n1 | 0.461 µM [rising, full curve] | -10.1% |  |
| O=C(O)c1ccc(N2C(=O)CC(N3CCN(c4cccc(C(F)(F)F)c4)CC3)C2=O)cc1 (centres undefined) | 0.146 µM [falling, partial curve, poor fit] | -0.787% |  |
| Cc1ccc(S(=O)(=O)NC2CCCCC2)cc1C(=O)N1CCC(C(N)=O)CC1 | 29.1 µM [falling, single point] | -51% |  |
| CN(C)C(=O)c1cc(S(=O)(=O)N(C)C)c(Cl)cc1N1CCCC1 | 1.16 µM [falling, single point] | -2.25% |  |
| O=C(NCc1ccccn1)c1ccc(N2CCCC2)c([N+](=O)[O-])c1 |  | -5.13% |  |
| NNS(=O)(=O)c1ccc2c(c1)Cc1cc(S(=O)(=O)NN)ccc1-2 | 29.1 µM [rising, single point] | 16.7% |  |
| N/C(Cc1cccc2ccccc12)=N\OC(=O)c1cccs1 | 2.59 µM [falling, single point] | -14% |  |
| CN1C(=O)c2cccc3c(N)ccc(c23)C1=O | 16.4 µM [falling, partial curve] | -94.3% | 29.1 µM [falling, single point] |
| C#CCNC(=O)c1cccn1-c1ncc(C(F)(F)F)cc1Cl | 0.00461 µM [falling, full curve, poor fit] | 15.6% |  |
| CCC(=O)Oc1ccc(NC(=O)CSCc2ccccc2)cc1 | 2.91 µM [falling, single point] | -25.1% |  |
| COc1ccc(CC(=O)c2cc(OC)c(OC)cc2CC(=O)O)cc1OC | 6.51 µM [falling, single point] | 50.9% | 7.31 µM [falling, single point] |
| Nc1nc(N)c(N=Nc2ccc(C(=O)O)cc2)c(N)n1 | 2.31 µM [rising, partial curve, poor fit] | 5% |  |

| SMILES | AC50 [1] | cell number change | AC50 [2] |
| --- | --- | --- | --- |
| Cc1ccc2oc(Nc3nc(-c4ccccc4)cc(=O)[nH]3)nc2c1 | 18.4 µM [falling, partial curve] | -1.81% | 0.461 µM [rising, single point] |
| O=C(COC(=O)c1cccc(S(=O)(=O)N2CCOCC2)c1)c1ccccc1 | 29.1 µM [falling, single point] | -27.6% |  |
| CCCCOC(=O)n1c(=O)oc2ccccc21 | 3.66 µM [falling, full curve] | -24.5% |  |
| COc1cccc(/C=C/c2ccc3ccccc3n2)c1OC(C)=O | 2.31 µM [rising, full curve, poor fit] | 7.22% |  |
| COCCCn1c(O)c(/C=C2\N=C(C#N)C(=Nc3ccc(C)cc3)O2)sc1=S | 5.17 µM [falling, full curve] |  | 3.26 µM [rising, partial curve] |
| Cc1cc(C)c(OCCOCCN(C)C)c(Br)c1 | 1.64 µM [rising, partial curve] | 3.39% |  |
| O=C(CN1CCOCC1)Nc1ncc(Cc2cccc(Cl)c2)s1 | 16.4 µM [falling, single point] | -5.73% |  |
| O=C(O)c1sccc1OCc1ccccc1 |  | -43.2% | 11.6 µM [falling, partial curve] |
| CCCCc1nc2cc(C(=O)N3CCCC(COC)C3)ccc2o1 (centres undefined) |  | 31.7% | 29.1 µM [rising, single point] |
| Cc1ccc(NC(=O)c2ccccc2N2C(=O)C3C4C=CC(C5CC45)C3C2=O)cc1C (centres undefined) | 7.08 µM [falling, partial curve] | -49.5% | 7.08 µM [falling, full curve] |
| CCOC(=O)[C@H]1[C@H]2COc3ccc(Br)cc3[C@@H]2N2C(=O)c3ccc(F)cc3NC(=O)[C@@]12C | 6.51 µM [falling, single point] |  |  |
| CCn1c(=O)n(CC)c2cc(N3CCCC3)c(NC(=O)c3cccc(OC)c3)cc21 |  | 4.2% |  |
| Cc1ccc(CNC(=O)CCn2cc(-c3ccc(F)cc3)nc2-c2ccncc2)cc1 | 25.9 µM [falling, partial curve, poor fit] | -32.5% |  |
| Cc1cc(C[n+]2cc(Br)ccc2N)c2ncccc2c1 | 8.2 µM [rising, partial curve] | 7.2% |  |
| CCOC(=O)Cn1c(=O)oc2cc(S(=O)(=O)Nc3ccc(N(CC)CC)cc3C)ccc21 | 0.731 µM [rising, single point] | 0.395% |  |
| COC(=O)C1CCN(C(=O)CN(C)Cc2ccc(C(C)(C)C)cc2)CC1 |  | 14.1% |  |
| O=C(O)COc1ccc2c3c(c(=O)oc2c1)CCCC3 | 0.651 µM [falling, single point] | 4.14% |  |
| Cc1nnc(SCc2nnc(-c3ccccc3Br)o2)n1-c1ccccc1 | 0.651 µM [rising, partial curve] |  | 0.731 µM [rising, partial curve] |
| O=C(N1CCC(n2nc(-c3ccccc3)oc2=O)CC1)C1(c2ccc(Cl)cc2)CC1 | 5.17 µM [falling, full curve] | -16.8% |  |

Molecules shown so far with two or more sulfur atoms (four):

| SMILES | AC50 [1] | cell number change | AC50 [2] |
| --- | --- | --- | --- |
| COc1ccc(N2CCN(C(=S)NC(=O)c3cccs3)CC2)c([N+](=O)[O-])c1 |  | 24.1% | 1.3 µM [rising, full curve, poor fit] |
| Cc1csc(NC(=O)CSc2nnc(-c3ccoc3C)n2Cc2ccco2)n1 | 0.461 µM [rising, full curve] | -10.1% |  |
| NNS(=O)(=O)c1ccc2c(c1)Cc1cc(S(=O)(=O)NN)ccc1-2 | 29.1 µM [rising, single point] | 16.7% |  |
| COCCCn1c(O)c(/C=C2\N=C(C#N)C(=Nc3ccc(C)cc3)O2)sc1=S | 5.17 µM [falling, full curve] |  | 3.26 µM [rising, partial curve] |
